Results from PubChem BioAssay AID2549 (National Center for Advancing Translational Sciences (NCATS), 2010).
About 1,300 (0.54%) of roughly 240,000 compounds were called active. This list was built around the results that the source calls inconclusive (neither active nor inactive); the mix of calls is not that of the screen. Calls come from the whole dose curve; as a rule, active = well fitted inhibition curve with a large enough effect; inconclusive = small, poorly fitted or top-dose-only effect; inactive = flat fitted curve, though single readings scatter. Where the call is inconclusive, the potency comes from a doubtful curve fit.

By UniProt entry, the sequences of proteins in these tests, tags left out. Where a name states a change or a piece, a line headed by the entry shows the natural chain unless it says otherwise.
UniProt P46063: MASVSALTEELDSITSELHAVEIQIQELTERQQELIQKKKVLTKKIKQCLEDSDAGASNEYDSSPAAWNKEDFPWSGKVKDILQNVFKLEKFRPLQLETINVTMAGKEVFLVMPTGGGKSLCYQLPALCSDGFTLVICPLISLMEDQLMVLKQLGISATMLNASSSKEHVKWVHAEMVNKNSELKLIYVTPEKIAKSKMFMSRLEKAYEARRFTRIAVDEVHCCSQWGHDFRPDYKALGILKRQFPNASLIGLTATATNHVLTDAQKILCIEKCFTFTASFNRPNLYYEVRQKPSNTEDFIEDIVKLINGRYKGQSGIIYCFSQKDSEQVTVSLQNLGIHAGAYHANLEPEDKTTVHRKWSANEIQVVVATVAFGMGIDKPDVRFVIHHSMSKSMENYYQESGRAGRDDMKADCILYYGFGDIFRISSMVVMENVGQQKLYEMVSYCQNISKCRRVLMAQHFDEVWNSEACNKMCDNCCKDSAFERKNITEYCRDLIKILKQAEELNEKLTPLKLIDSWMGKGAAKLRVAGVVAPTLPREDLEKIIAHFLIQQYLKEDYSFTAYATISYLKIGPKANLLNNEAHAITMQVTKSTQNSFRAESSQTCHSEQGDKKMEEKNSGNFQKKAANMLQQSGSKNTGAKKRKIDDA

Molecular target: ATP-dependent DNA helicase Q1 (Homo sapiens) (UniProt P46063)
Test: qHTS Assay for Inhibitors of RecQ-Like Dna Helicase 1 (RECQ1); note: nearly all actives have a fitted effect of over 30% in size
Conditions: RECQ1 DNA unwinding, red fluorescence kinetic read; series mostly up to 57.3 µM
Summary of the method: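 RECQ1T1 50 nM; forked duplex (20 bp + 30-nt ss tails) 200 nM, ATP 2 mM final; pH 8.0, 2 mM MgCl2, 2.5 ug/ml poly(dI-dC); 15 min compound preincubation; discontinuous kinetic read over 2 h at RT.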
Potency is the fitted concentration of half-maximal effect.

Compound | Potency
CN1CCN(C(c2cccc(C(F)(F)F)c2)c2nnnn2Cc2ccccc2)CC1 (stereo not given) | inconclusive: 7.94 µM [inhibitor, partial curve, poor fit]
CCOC(=O)C1=C(O)/C(=C/c2cc(OC)c(O)c(OC)c2)SC1=Nc1ccc(OC)cc1 | active: 14.1 µM
COc1cc2cc3c(N)c(C(=O)NCc4ccco4)sc3nc2cc1OC | inconclusive: 39.8 µM [inhibitor, single point]
Cc1cc([N+](=O)[O-])cc(/C=N\NC(=O)C2COc3ccccc3O2)c1O (stereo not given) | inactive
Cc1ccc(OCC(O)Cn2c3ccccc3c3ccccc32)cc1 (stereo not given) | inconclusive: 7.94 µM [inhibitor, full curve, poor fit]
CN1CCN(c2ncc3nc(CCc4ccccc4)c(=O)n(Cc4ccc(F)cc4)c3n2)CC1 | inactive
C[C@H](N)CCP(=O)(O)O | inactive
CCC1(O)CC2CN(CCc3c([nH]c4ccccc34)[C@@](C(=O)OC)(c3cc4c(cc3OC)N(C)C3[C@]45CCN4CC=C[C@@](CC)([C@@H](OC(C)=O)[C@]3(O)C(=O)OC)[C@H]45)C2)C1 (stereo not given in full) | active: 14.1 µM
COc1cc(NC(=S)NCCc2ccccc2)c(OC)cc1NC(=O)CC(C)C | inconclusive: 35.5 µM [inhibitor, partial curve]
COc1ccccc1-c1nnc2n1N=C(c1ccc(O)c(O)c1)CS2 | active: 31.6 µM
O=C1OC(Nc2ncccn2)c2ccccc21 (stereo not given) | inactive
CCOC(=O)c1[nH]c2c(c1C)C(=O)CC(c1ccco1)C2 (stereo not given) | inconclusive: 28.2 µM [inhibitor, partial curve]
CCOC(=O)C1CCCNC1=O (stereo not given) | inactive
O=C(/C=C/c1cc2c(cc1Br)OCO2)NCc1ccc(Cl)cc1 | inconclusive: 39.8 µM [inhibitor, single point]
COc1ccc(OC)c(N2C(=O)[C@@H]3C(c4ccccc4Cl)=NO[C@@H]3C2=O)c1 | active: 28.2 µM
Cc1c(Cl)cnc(NC(=O)COC(=O)c2ccc(S(=O)(=O)NCc3ccco3)cc2)c1Cl | inconclusive: 28.2 µM [inhibitor, partial curve]
O=C(COC(=O)c1ccc(NS(=O)(=O)c2cccs2)cc1)Nc1nc2c(F)c(F)c(F)cc2s1 | inconclusive: 28.2 µM [inhibitor, single point]
CN(C)S(=O)(=O)c1ccc(C(=O)Nc2nnc(SCc3cccc4ccccc34)s2)cc1 | inconclusive: 0.178 µM [inhibitor, full curve, poor fit]
CC(=O)c1cc(-c2ccccc2)n(CC(=O)Nc2cccc(C)c2C)c1C | inconclusive: 5.62 µM [inhibitor, single point]
O=C1CC(Nc2ccc(N3CCOCC3)cc2)C(=O)N1Cc1ccccc1 (stereo not given) | inconclusive: 31.6 µM [inhibitor, single point]
O=C(N/C(=C\c1cn(-c2ccccc2)nc1-c1ccccc1)C(=O)N1CCOCC1)c1ccccc1 | inactive
COc1cc(/C=N/n2c(=S)[nH]nc(C)c2=O)cc([N+](=O)[O-])c1O | inactive
O=C1CC(=O)CC(c2ccccc2Cl)C1 | inconclusive: 39.8 µM [inhibitor, single point]

Compound | Potency
CCc1cc2c(=O)c(-c3nc4ccccc4n3C)coc2c(CN2CCN(C)CC2)c1O | inconclusive: 25.1 µM [inhibitor, single point]
CCc1ccc(NC(=O)c2noc3c2CCC3)cc1 | inconclusive: 31.6 µM [inhibitor, single point]
CC(C)(O)C#Cc1ccc(CN2CCCC(CO)(Cc3cccc(Cl)c3)C2)cc1 (stereo not given) | inconclusive: 39.8 µM [inhibitor, single point]
Cc1nc(N2CCN(Cc3ccc(Cl)cc3)CC2)c2oc3ccccc3c2n1 | inconclusive: 0.0282 µM [inhibitor, full curve, poor fit]
O=c1c(O)cccc2cc(O)c(O)c(O)c12 | active: 2.51 µM
COCCNC(=O)Nc1ccc2nc(-c3ccco3)c(-c3ccco3)nc2c1 | active: 8.91 µM
COc1cc(NC(=O)c2csc(N)n2)cc(C(=O)Nc2cccc(C(F)(F)F)c2)c1 | inactive
CN(C)C(=O)NC1CCCCCCC1 | inactive
CC(=O)c1ccc(N2C(=O)C3C(C2=O)C(C(=O)c2ccc(Cl)cc2)N2CCCC32)cc1 (stereo not given) | inconclusive: 3.55 µM [inhibitor, full curve]
CC[C@H](C)NC(=O)CCCCCn1c(=S)[nH]c2c([nH]c3ccc(OC)cc32)c1=O | inconclusive: 39.8 µM [inhibitor, single point]
C/C(CC(=O)N1CCN(C=O)CC1)=N\NC(=O)c1cc2ccccc2cc1O | active: 28.2 µM
Cc1ccc(-c2nc(N)n(C(=O)c3cccs3)n2)cc1 | inconclusive: 0.141 µM [inhibitor, full curve, poor fit]
C1CCc2c(nc3nnnn3c2NC2CCCC2)C1 | inconclusive: 0.891 µM [inhibitor, full curve, poor fit]
N#Cc1ccc(CSc2nnc(Cc3cccs3)n2Cc2ccco2)cc1 | inconclusive: 35.5 µM [inhibitor, single point]
Cc1ccc(CNC(=O)Cc2ccc(-n3cccc3)cc2)cc1 | inactive
CCC(=O)N1CCN(CCN=CC2=C(O)CC(c3ccc(OC)cc3)CC2=O)CC1 (stereo not given) | inactive
C/C(=N\NC(=S)NCc1ccccc1)c1ccc(Cl)cc1 | active: 31.6 µM
N#Cc1c(NC(=O)c2ccncc2)sc2c1CCC2 | inconclusive: 35.5 µM [inhibitor, single point]
O=C(Cn1cnc2c(oc3ccccc32)c1=O)NCc1ccco1 | inconclusive: 12.6 µM [inhibitor, partial curve]
COc1cccc(/C=N/NC(=O)CNC(=O)c2cccs2)c1O | inactive
COc1cccc(NC(=O)COC(=O)c2c3c(nc4ccccc24)CCC(C)C3)c1 (stereo not given) | inconclusive: 8.91 µM [inhibitor, full curve, poor fit]
C=CCn1c(SCC(=O)c2cc(C)n(Cc3cccs3)c2C)nnc1-c1ccncc1 | inconclusive: 39.8 µM [inhibitor, single point]

A portion taken from the entries so far:
Compound | Potency
CC(=O)c1ccc(N2C(=O)C3C(C2=O)C(C(=O)c2ccc(Cl)cc2)N2CCCC32)cc1 (stereo not given) | inconclusive: 3.55 µM [inhibitor, full curve]
CC[C@H](C)NC(=O)CCCCCn1c(=S)[nH]c2c([nH]c3ccc(OC)cc32)c1=O | inconclusive: 39.8 µM [inhibitor, single point]
